# These are yes or no findings as the source states them, for the method shown. In cells and extracts the contact can be indirect. Some binding calls cover weakened binding; strength is not graded here.
# Sequences of proteins named here, by UniProt entry; tags and fusion partners are left off.
# UniProt Q7KQL5: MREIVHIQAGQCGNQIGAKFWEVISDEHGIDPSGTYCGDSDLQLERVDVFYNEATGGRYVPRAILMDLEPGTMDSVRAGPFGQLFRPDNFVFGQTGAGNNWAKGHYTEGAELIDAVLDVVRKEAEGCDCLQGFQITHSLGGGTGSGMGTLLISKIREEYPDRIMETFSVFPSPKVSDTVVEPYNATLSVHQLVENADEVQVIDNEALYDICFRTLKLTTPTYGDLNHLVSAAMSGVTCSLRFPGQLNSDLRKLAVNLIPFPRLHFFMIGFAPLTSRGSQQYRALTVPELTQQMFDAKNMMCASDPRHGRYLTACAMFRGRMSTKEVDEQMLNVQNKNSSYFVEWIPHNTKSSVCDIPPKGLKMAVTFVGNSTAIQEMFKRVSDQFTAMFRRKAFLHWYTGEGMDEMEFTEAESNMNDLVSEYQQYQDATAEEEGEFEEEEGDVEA
# Molecular target: T1, endogenous PfCoSP in Plasmodium falciparum parasite lysate (Plasmodium falciparum (endogenous in parasite lysate)) (UniProt Q8I248)
# T1 sequence: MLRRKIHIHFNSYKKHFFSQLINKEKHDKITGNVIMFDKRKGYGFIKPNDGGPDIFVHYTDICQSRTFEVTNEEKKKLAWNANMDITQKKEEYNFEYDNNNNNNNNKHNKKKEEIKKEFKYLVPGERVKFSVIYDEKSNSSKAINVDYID
# Test: co-IP
substance,measurement,value
endogenous beta tubulin in Plasmodium falciparum parasite lysate (from UniProt Q7KQL5 1-445),binding,binds

# — doi:10.1101/2022.07.07.499247
